From patent US11220671B2, “Methods for the maturation of cardiomyocytes on amniotic fluid cell-derived ECM, cellular constructs, and uses for cardiotoxicity and proarrhythmic screening of drug compounds” (STEMBIOSYS, INC., priority 2019, dated 2022) come the findings set out here.

A short description of this data set: Composition of amniotic fluid cell-derived ECM by mass spectrometry (total spectra count). The conditions noted are these: mass spectrometry, label = protein component; for Total Spectra Count Matrix A: amniotic fluid cell-derived ECM Matrix A; for Total Spectra Count Matrix B: amniotic fluid cell-derived ECM Matrix B; for Total Spectra Count Matrix C: amniotic fluid cell-derived ECM Matrix C; for Total Spectra Count Matrix D: amniotic fluid cell-derived ECM Matrix D.

B1: PDZ and LIM domain protein 1 (protein, UniProt O00151 2-329, looked up)
PDZ and LIM domain protein 1: TTQQIDLQGPGPWGFRLVGGKDFEQPLAISRVTPGSKAALANLCIGDVITAIDGENTSNMTHLEAQNRIKGCTDNLTLTVARSEHKVWSPLVTEEGKRHPYKMNLASEPQEVLHIGSAHNRSAMPFTASPASSTTARVITNQYNNPAGLYSSENISNFNNALESKTAASGVEANSRPLDHAQPPSSLVIDKESEVYKMLQEKQELNEPPKQSTSFLVLQEILESEEKGDPNKPSGFRSVKAPVTKVAASIGNAQKLPMCDKCGTGIVGVFVKLRDRHRHPECYVCTDCGTNLKQKGHFFVEDQIYCEKHARERVTPPEGYEVVTVFPK
On to B1, for which the “Total Spectra Count Matrix A” value was determined as 0, the “Total Spectra Count Matrix B” value was determined as 0, the “Total Spectra Count Matrix C” value worked out at 0 and the “Total Spectra Count Matrix D” value is 4.

B2: Periaxin (protein, UniProt Q9BXM0 1-1461, looked up)
Periaxin: MEARSRSAEELRRAELVEIIVETEAQTGVSGINVAGGGKEGIFVRELREDSPAARSLSLQEGDQLLSARVFFENFKYEDALRLLQCAEPYKVSFCLKRTVPTGDLALRPGTVSGYEIKGPRAKVAKLNIQSLSPVKKKKMVPGALGVPADLAPVDVEFSFPKFSRLRRGLKAEAVKGPVPAAPARRRLQLPRLRVREVAEEAQAARLAAAAPPPRKAKVEAEVAAGARFTAPQVELVGPRLPGAEVGVPQVSAPKAAPSAEAAGGFALHLPTLGLGAPAPPAVEAPAVGIQVPQVELPALPSLPTLPTLPCLETREGAVSVVVPTLDVAAPTVGVDLALPGAEVEARGEAPEVALKMPRLSFPRFGARAKEVAEAKVAKVSPEARVKGPRLRMPTFGLSLLEPRPAAPEVVESKLKLPTIKMPSLGIGVSGPEVKVPKGPEVKLPKAPEVKLPKVPEAALPEVRLPEVELPKVSEMKLPKVPEMAVPEVRLPEVELPKVSEMKLPKVPEMAVPEVRLPEVQLLKVSEMKLPKVPEMAVPEVRLPEVQLPKVSEMKLPEVSEVAVPEVRLPEVQLPKVPEMKVPEMKLPKVPEMKLPEMKLPEVQLPKVPEMAVPDVHLPEVQLPKVPEMKLPEMKLPEVKLPKVPEMAVPDVHLPEVQLPKVPEMKLPKMPEMAVPEVRLPEVQLPKVSEMKLPKVPEMAVPDVHLPEVQLPKVCEMKVPDMKLPEIKLPKVPEMAVPDVHLPEVQLPKVSEIRLPEMQVPKVPDVHLPKAPEVKLPRAPEVQLKATKAEQAEGMEFGFKMPKMTMPKLGRAESPSRGKPGEAGAEVSGKLVTLPCLQPEVDGEAHVGVPSLTLPSVELDLPGALGLQGQVPAAKMGKGERVEGPEVAAGVREVGFRVPSVEIVTPQLPAVEIEEGRLEMIETKVKPSSKFSLPKFGLSGPKVAKAEAEGAGRATKLKVSKFAISLPKARVGAEAEAKGAGEAGLLPALDLSIPQLSLDAHLPSGKVEVAGADLKFKGPRFALPKFGVRGRDTEAAELVPGVAELEGKGWGWDGRVKMPKLKMPSFGLARGKEAEVQGDRASPGEKAESTAVQLKIPEVELVTLGAQEEGRAEGAVAVSGMQLSGLKVSTAGQVVTEGHDAGLRMPPLGISLPQVELTGFGEAGTPGQQAQSTVPSAEGTAGYRVQVPQVTLSLPGAQVAGGELLVGEGVFKMPTVTVPQLELDVGLSREAQAGEAATGEGGLRLKLPTLGARARVGGEGAEEQPPGAERTFCLSLPDVELSPSGGNHAEYQVAEGEGEAGHKLKVRLPRFGLVRAKEGAEEGEKAKSPKLRLPRVGFSQSEMVTGEGSPSPEEEEEEEEEGSGEGASGRRGRVRVRLPRVGLAAPSKASRGQEGDAAPKSPVREKSPKFRFPRVSLSPKARSGSGDQEEGGLRVRLPSVGFSETGAPGPARMEGAQAAAV
As to B2, the “Total Spectra Count Matrix A” value worked out at 0, the “Total Spectra Count Matrix B” value is reported as 0, the “Total Spectra Count Matrix C” value is on record as 0 and the “Total Spectra Count Matrix D” value amounted to 2.

B3: Palladin (protein, UniProt Q8WX93 1-1383, looked up)
Palladin: MSGTSSHESFYDSLSDMQEESKNTDFFPGLSAFLSQEEINKSLDLARRAIADSETEDFDSEKEISQIFSTSPASLCEHPSHKETKLGEHASRRPQDNRSTPVQPLAEKQTKSISSPVSKRKPAMSPLLTRPSYIRSLRKAEKRGAKTPSTNVKPKTPHQRKGGPQSQLCDKAANLIEELTSIFKAAKPRNRSPNGESSSPDSGYLSPKNQPSALLSASASQSPMEDQGEMEREVKSPGARHCYQDNQDLAVPHNRKSHPQPHSALHFPAAPRFIQKLRSQEVAEGSRVYLECRVTGNPTPRVRWFCEGKELHNTPDIQIHCEGGDLHTLIIAEAFEDDTGRYTCLATNPSGSDTTSAEVFIEGASSTDSDSESLAFKSRAGAMPQAQKKTTSVSLTIGSSSPKTGVTTAVIQPLSVPVQQVHSPTSYLCRPDGTTTAYFPPVFTKELQNTAVAEGQVVVLECRVRGAPPLQVQWFRQGSEIQDSPDFRILQKKPRSTAEPEEICTLVIAETFPEDAGIFTCSARNDYGSATSTAQLVVTSANTENCSYESMGESNNDHFQHFPPPPPILETSSLELASKKPSEIQQVNNPELGLSRAALQMQFNAAERETNGVHPSRGVNGLINGKANSNKSLPTPAVLLSPTKEPPPLLAKPKLDPLKLQQLQNQIRLEQEAGARQPPPAPRSAPPSPPFPPPPAFPELAACTPPASPEPMSALASRSAPAMQSSGSFNYARPKQFIAAQNLGPASGHGTPASSPSSSSLPSPMSPTPRQFGRAPVPPFAQPFGAEPEAPWGSSSPSPPPPPPPVFSPTAAFPVPDVFPLPPPPPPLPSPGQASHCSSPATRFGHSQTPAAFLSALLPSQPPPAAVNALGLPKGVTPAGFPKKASRTARIASDEEIQGTKDAVIQDLERKLRFKEDLLNNGQPRLTYEERMARRLLGADSATVFNIQEPEEETANQEYKVSSCEQRLISEIEYRLERSPVDESGDEVQYGDVPVENGMAPFFEMKLKHYKIFEGMPVTFTCRVAGNPKPKIYWFKDGKQISPKSDHYTIQRDLDGTCSLHTTASTLDDDGNYTIMAANPQGRISCTGRLMVQAVNQRGRSPRSPSGHPHVRRPRSRSRDSGDENEPIQERFFRPHFLQAPGDLTVQEGKLCRMDCKVSGLPTPDLSWQLDGKPVRPDSAHKMLVRENGVHSLIIEPVTSRDAGIYTCIATNRAGQNSFSLELVVAAKEAHKPPVFIEKLQNTGVADGYPVRLECRVLGVPPPQIFWKKENESLTHSTDRVSMHQDNHGYICLLIQGATKEDAGWYTVSAKNEAGIVSCTARLDVYTQWHQQSQSTKPKKVRPSASRYAALSDQGLDIKAAFQPEANPSHLTLNTALVESEDL
Regarding B3, the “Total Spectra Count Matrix A” value was 0, the “Total Spectra Count Matrix B” value came out at 7, the “Total Spectra Count Matrix C” value is 0 and the “Total Spectra Count Matrix D” value was found to be 6.

B4: Polymerase delta-interacting protein 3 (protein, UniProt Q9BY77 2-421, looked up)
Polymerase delta-interacting …: ADISLDELIRKRGAAAKGRLNARPGVGGVRSRVGIQQGLLSQSTRTATFQQRFDARQKIGLSDARLKLGVKDAREKLLQKDARFRIKGKVQDAREMLNSRKQQTTVPQKPRQVADAREKISLKRSSPAAFINPPIGTVTPALKLTKTIQVPQQKAMAPLHPHPAGMRINVVNNHQAKQNLYDLDEDDDGIASVPTKQMKFAASGGFLHHMAGLSSSKLSMSKALPLTKVVQNDAYTAPALPSSIRTKALTNMSRTLVNKEEPPKELPAAEPVLSPLEGTKMTVNNLHPRVTEEDIVELFCVCGALKRARLVHPGVAEVVFVKKDDAITAYKKYNNRCLDGQPMKCNLHMNGNVITSDQPILLRLSDSPSMKKESELPRRVNSASSSNPPAEVDPDTILKALFKSSGASVTTQPTEFKIKL
With B4, the “Total Spectra Count Matrix A” value is given as 0, the “Total Spectra Count Matrix B” value is 6, the “Total Spectra Count Matrix C” value is listed as 0 and the “Total Spectra Count Matrix D” value worked out at 0.

B5: Nucleolar transcription factor 1 (protein, UniProt P17480 1-764, looked up)
Nucleolar transcription …: MNGEADCPTDLEMAAPKGQDRWSQEDMLTLLECMKNNLPSNDSSKFKTTESHMDWEKVAFKDFSGDMCKLKWVEISNEVRKFRTLTELILDAQEHVKNPYKGKKLKKHPDFPKKPLTPYFRFFMEKRAKYAKLHPEMSNLDLTKILSKKYKELPEKKKMKYIQDFQREKQEFERNLARFREDHPDLIQNAKKSDIPEKPKTPQQLWYTHEKKVYLKVRPDATTKEVKDSLGKQWSQLSDKKRLKWIHKALEQRKEYEEIMRDYIQKHPELNISEEGITKSTLTKAERQLKDKFDGRPTKPPPNSYSLYCAELMANMKDVPSTERMVLCSQQWKLLSQKEKDAYHKKCDQKKKDYEVELLRFLESLPEEEQQRVLGEEKMLNINKKQATSPASKKPAQEGGKGGSEKPKRPVSAMFIFSEEKRRQLQEERPELSESELTRLLARMWNDLSEKKKAKYKAREAALKAQSERKPGGEREERGKLPESPKRAEEIWQQSVIGDYLARFKNDRVKALKAMEMTWNNMEKKEKLMWIKKAAEDQKRYERELSEMRAPPAATNSSKKMKFQGEPKKPPMNGYQKFSQELLSNGELNHLPLKERMVEIGSRWQRISQSQKEHYKKLAEEQQKQYKVHLDLWVKSLSPQDRAAYKEYISNKRKSMTKLRGPNPKSSRTTLQSKSESEEDDEEDEDDEDEDEEEEDDENGDSSEDGGDSSESSSEDESEDGDENEEDDEDEDDDEDDDEDEDNESEGSSSSSSSSGDSSDSDSN
With B5, the “Total Spectra Count Matrix A” value was 0, the “Total Spectra Count Matrix B” value came to 2, the “Total Spectra Count Matrix C” value was determined as 0 and the “Total Spectra Count Matrix D” value is given as 0.

B6: Nucleoplasmin-3 (protein, UniProt O75607 2-178, looked up)
Nucleoplasmin-3: AAGTAAALAFLSQESRTRAGGVGGLRVPAPVTMDSFFFGCELSGHTRSFTFKVEEEDDAEHVLALTMLCLTEGAKDECNVVEVVARNHDHQEIAVPVANLKLSCQPMLSLDDFQLQPPVTFRLKSGSGPVRITGRHQIVTMSNDVSEEESEEEEEDSDEEEVELCPILPAKKQGGRP
Consider B6, for which the “Total Spectra Count Matrix A” value was determined as 0, the “Total Spectra Count Matrix B” value is given as 3, the “Total Spectra Count Matrix C” value stood at 0 and the “Total Spectra Count Matrix D” value was 0.

B7: Peptidyl-prolyl cis-trans isomerase FKBP3 (protein, UniProt Q00688 2-224, looked up)
Peptidyl-prolyl cis-trans …: AAAVPQRAWTVEQLRSEQLPKKDIIKFLQEHGSDSFLAEHKLLGNIKNVAKTANKDHLVTAYNHLFETKRFKGTESISKVSEQVKNVKLNEDKPKETKSEETLDEGPPKYTKSVLKKGDKTNFPKKGDVVHCWYTGTLQDGTVFDTNIQTSAKKKKNAKPLSFKVGVGKVIRGWDEALLTMSKGEKARLEIEPEWAYGKKGQPDAKIPPNAKLTFEVELVDID
For the molecule B7, the “Total Spectra Count Matrix A” value turned out to be 0, the “Total Spectra Count Matrix B” value came to 8, the “Total Spectra Count Matrix C” value was determined as 0 and the “Total Spectra Count Matrix D” value is recorded as 0.
